Experimental data published in paper PMC9744329.
These are yes or no findings as the source states them, for the method shown. Binding seen in cells or lysates may run through a third protein. Here binding means that the protein was enriched with, or labelled near, the bait; the list need not be complete. For part of these data: A no says only that the protein was not detected with the bait. For part of these data: Sequences can lack the tags named with a protein.

By UniProt entry, the sequences of proteins in these tests, tags left out.
UniProt Q00659: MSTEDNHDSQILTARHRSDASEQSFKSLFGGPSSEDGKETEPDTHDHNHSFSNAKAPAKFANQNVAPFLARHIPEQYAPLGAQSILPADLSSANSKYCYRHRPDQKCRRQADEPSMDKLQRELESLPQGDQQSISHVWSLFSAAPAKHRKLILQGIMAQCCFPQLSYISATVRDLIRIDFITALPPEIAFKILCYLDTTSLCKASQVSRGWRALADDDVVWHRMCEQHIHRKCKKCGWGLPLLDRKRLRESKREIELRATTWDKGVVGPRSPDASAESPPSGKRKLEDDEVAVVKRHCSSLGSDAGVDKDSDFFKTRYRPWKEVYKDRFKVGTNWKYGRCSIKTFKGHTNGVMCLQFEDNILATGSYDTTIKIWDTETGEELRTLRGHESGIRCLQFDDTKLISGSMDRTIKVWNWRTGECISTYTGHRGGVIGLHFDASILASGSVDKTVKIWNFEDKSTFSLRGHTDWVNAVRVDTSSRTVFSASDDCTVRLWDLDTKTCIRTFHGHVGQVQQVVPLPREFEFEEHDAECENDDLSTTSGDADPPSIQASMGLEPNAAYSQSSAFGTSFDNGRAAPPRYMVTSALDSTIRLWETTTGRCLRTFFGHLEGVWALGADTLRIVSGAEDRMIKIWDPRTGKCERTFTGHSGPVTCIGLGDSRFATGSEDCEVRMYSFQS

T1: SkpA-GFP (Aspergillus nidulans) (UniProt Q5BAX8)
T1 sequence: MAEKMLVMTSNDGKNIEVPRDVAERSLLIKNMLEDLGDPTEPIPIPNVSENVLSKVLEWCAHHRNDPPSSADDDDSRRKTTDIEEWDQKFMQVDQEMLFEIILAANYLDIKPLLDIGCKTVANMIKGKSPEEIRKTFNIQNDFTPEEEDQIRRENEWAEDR


Legend:
[1] = target: T1, SkpA-GFP (Aspergillus nidulans); test: affinity purification with mass spectrometry; GFP trap of SkpA-GFP (native locus) from A. nidulans: vegetative growth 24h, asexual development in light 24h, sexual development in the dark, osmotic stress (0.5 M NaCl), oxidative stress (5 mM H2O2, 80 μM Menadione); LC-MS; filtered against the free GFP control; at least two biological replicates
[2] = target: T1, SkpA-GFP (Aspergillus nidulans); test: condition: only stress conditions (5 mM H2O2, 80 μM Menadione, 0.5 M NaCl); affinity purification with mass spectrometry; GFP trap of SkpA-GFP from A. nidulans under the stress conditions only (5 mM H2O2, 80 μM Menadione, 0.5 M NaCl); LC-MS
[3] = target: Fbx15-GFP (Aspergillus nidulans); test: affinity purification with mass spectrometry; GFP trap (GFP-TRAP sepharose or magnetic particles, Chromotek) of Fbx-GFP fusions and their F-box deleted forms from A. nidulans vegetative cultures at 30°C for 24h, for Fbx15/23/25/27 also under osmotic (NaCl) and oxidative (H2O2) stress; LC-MS; two biological replicates
[4] = target: Fbx25-GFP (Aspergillus nidulans) (UniProt Q00659); test: as above
[5] = target: Fbx27-GFP (Aspergillus nidulans); test: as above
[6] = target: FΔFbx15-GFP (Aspergillus nidulans); test: affinity purification with mass spectrometry
[7] = target: FΔFbx27-GFP (Aspergillus nidulans); test: affinity purification with mass spectrometry
[8] = target: CulA-GFP (Aspergillus nidulans); test: affinity purification with mass spectrometry; GFP trap of CulA-GFP from A. nidulans, vegetative growth; LC-MS; filtered against the free GFP control
[9] = target: Fbx47-GFP (Aspergillus nidulans); test: affinity purification with mass spectrometry; GFP trap (GFP-TRAP sepharose or magnetic particles, Chromotek) of Fbx-GFP fusions and their F-box deleted forms from A. nidulans vegetative cultures at 30°C for 24h, for Fbx15/23/25/27 also under osmotic (NaCl) and oxidative (H2O2) stress; LC-MS; two biological replicates

Molecule	binding [1]	also measured
Fbx74	binds	
Fbx25/SconB (from UniProt Q00659 1-678)	binds	
Fbx11	binds	
Fbx27	binds	
Fbx19	binds	
Fbx23	binds	
Fbx57	no binding	
Fbx3	no binding	
Fbx10	binds	
Fbx51	binds	
Fbx72	binds	
Fbx18	binds	
Fbx52	no binding	
Fbx1	binds	
Fbx38	no binding	
Fbx15	binds	
Fbx50/GrrA	binds	
Fbx36	binds	binding [2]: no binding
CulA	binds	
SkpA (protein, UniProt Q5BAX8 1-161) MAEKMLVMTSNDGKNIEVPRDVAERSLLIKNMLEDLGDPTEPIPIPNVSENVLSKVLEWCAHHRNDPPSSADDDDSRRKTTDIEEWDQKFMQVDQEMLFEIILAANYLDIKPLLDIGCKTVANMIKGKSPEEIRKTFNIQNDFTPEEEDQIRRENEWAEDR		binding [3]: binds; binding [4]: binds; binding [5]: binds; binding [6]: binds; binding [7]: binds; binding [8]: binds
HogA (enzyme, UniProt Q9P419 1-379) MAEFVRAQIFGTTFEITSRYTDLQPVGMGAFGLVCSARDQLTAQPVAVKKIMKPFSTPVLSKRTYRELKLLKHLRHENIISLSDIFISPLEDIYFVTELLGTDLHRLISSRPLEKQFIQYFLYQIMRGLKYVHSAGVVHRDLKPSNILINENCDLKICDFGLARIQDPQMTGYVSTRYYRAPEIMLTWQKYDAKVDVWSAACIFAEMLLGAPLFPGKDHVNQFSIITELLGTPPDDVIQTICSENTLRFVKSLPKREPQDLAKLPKFLALVHPDKKPEEDEDYKNTINLLKAMLVYNPKDRISAEAALAAPYLAPYHDETDEPVAEEKFDWSFNDADLPVDTWKIMMYSEILDFHNIDQGGDINPALVEGAGLNQQGFQ		binding [9]: binds
NudC (protein, UniProt P17624 1-198) MSEQEPSSADLAAREAEEKQRKAAEEAEQATLPYKWTQTIRDVDVTIPVSANLKGRDLDVVLKKDSIKVKVKGENGEVFIDGQFPHPIKPSESSWTLETTSKPPGKEVSIHLDKVNQMEWWAHVVTTAPKIDVSKITPENSSLSDLDGETRAMVEKMMYDQRQKEMGAPTSDEQRKMDILKKFQKEHPEMDFSNAKIG		binding [3]: binds
StcW (enzyme, UniProt Q00730 1-601) MTVHYVHEGPEPQESRYSIPQHTTWMDPNNRRLRVITIGAGFSGILMAYQIQKQCANIEHVVYEKNHDIGGTWLTNRYPNAGCDVPSHAYTYRFALYPDWPRYFSYASDIWEYLDKVCAAFKLRQYMQFRTEVIKACWNEEEGQWKVRLRRQRPGQEPEEFDDHCHILLNACGVLSNPKWPDTPGLHDRFKGRVIHTAAWPDDYGEVQWNSDRVAVIGSGASSIQAVAGIQPHVGHLDIFVRTGVWFGVLAGNTGAPTKIYSEAERAQFRSNPSALVEHTKSIEAEVNGMWGAFYRDSMAQKGASAFFRQRMASIIKDDRLAKGFTPTFGFGCRRITPGDPYMHAIQQANVDVHFTAVASCTEDGIVGADGIERLVDTIVCASGFDNTYRPQFPIIGRRGVDLRDKWKTNPEAYLGLAVPDMPNYITFIGPSWPIQNGSVMAPLHSVSEYAIQFLKKMQNENIRAWAPRQQITDRFNEHVQEWVKHTVWSDQCRSWYKNNETGRVNAIWPGSSLHYQAVIERPRYEDFEISYADANPWAHLGMGWTMLDRAGGKQADVSPHLCLENIDPVWFKSIGGDVDILRKQLEKGHTLPNNASHAEA		binding [3]: binds
StcT (protein, UniProt Q00717 1-215) MPFGTLYTRPFNPRSLAILAIAKANNLPLKIKTITSFKDATEEYLQLNPLGKIPTFVGADGYVLTESIAIALYDSNTTLLGTTGQEYASIIRWMAFGITEILPALGGWFNPLIGRANFNADNIYQSKDDTLARLKILDNHLCGREYLVGETLSLADLFVLGIVQGAFRFFLDKRWRDEHRNLSTWFERVHALPIVVDVAGPPVLAEYEMPIQPPK		binding [3]: binds
TF SteA (yeast Ste12) (protein, UniProt O74252 1-692) MYSQHGAPMAPPQKPETFMLSNEAQQSLPHDAQVALQQVDNLKYFLLSAPVDWQPDQLIRRFLLPTGDYISCVLWSNLFHISGTDIVRCLAFRFQAFGRPVKNSKKFEEGIFSDLRNLKAGTDATLEEPKSPFLDFLYKNNCIRTQKKQKVFYWYSVPHDRLFLDALERDLKREKMGQEATTVAVSEPALSFEFDSSQSLYEQLTKAQQANSSSFAAHASTTYGQSASPVVRTVDAMPPPQMAPQMAPPSIPLLTDESANSQMYTSIPMPNPIPQNLIKREADYGAIQYDRNGMPIARIHQRHSSMPTFVEYSPAPSFVSSQYEDYSNRGLSFEPVTPPQHSSHIGPEPAYIANEDTGLYTAIPEMSTGSGFNPMMHLPPSNLASAHFPTPARTFHSNVYSVLEGSPTYKQRRRRSSIPPGAANPVTTGTHSPAPALSYAAHKPSDLRRSVSSSVAPGDTDDSRHESLHRSVNSTYTATLPQKNLMHEMSRNGTPLSSVGEHREQSSIPLTQAEDLPALPANGTVESGAPNGVGHKSDRYATGPVRRARSATMMELGPYPQKSHSCPIPSCGRLFKRLEHLKRHVRTHTQERPYPCPYCNKAFSRSDNLAQHRRIHEAQQDGQPLVHEDDLENDDNESVSHDEDESPSESVHPAVPGVHGMTSMPSSVALQSTMGSMMGSHMIAPQLLQQQI		binding [3]: binds
serine/threonine kinase Atg1 (enzyme, UniProt Q5BCU8 1-935) MASTPSKSSRSSKEAYSEVAIGPYTRLDHIGKGSFATVYRGVQTKSRTFVAIKSVNLGKLNRKLKDNLAMEIDILKYLLHPHIVALLDCLETNSHIHLIMEYCALGDLSQFIKRRDSLKDHSYTRHMISKYPNVSGGALNEVIVRHFLKQLASALRFLRDKNLIHRDIKPQNLLLCPAPKPAPTQSEAEPQIVPLKGSETSFTPAVGLETLPLLKLADFGFARSLPATSLAETLCGSPLYMAPEILRYEKYDAKADLWSVGTVLYEMVVGKPPFRATNHVELLRKIETARDRIKFPEENPASDDIKALVRGLLKFNPVVRMTFADFFENDIITGPIPGLAAEDVPIPDRPPSPEVIPTESAEPQSVSDTIYPRNNDAEPKEDRYPPPHRYVPHNDRPQTPTSSSPMRRTRSGDRPSSAKQIPPAAAPPRPEAVSHATAPGRQELIGRHSSEQQAPGTVPVYKNVDKLKEERELAAQEVAFERDYVVVEKRAVEVNAFADQLAYDPRFHGKQTGALPRRQTTPALPTTQASSQNSPRKAVQVVSGRSRADSAHNRHASYERRYGQSPTSATSAISKALNMASGRLFGVGFSPPLNIAKGGRSPPLAYNPFPAYPTGHAGLLTMGDGARAQASPDEDTRTVKELEECATRSDVVYGFAEVKYKQLIPLAPSSQSYNSPNAPGTNFEEGELTPDAAVTLSEEALVLYVKALSLLAKSMDIAGAWWMRKNRAEALGESSFSRLEPVSIRINKVVQWVRSRFNEVLEKAEFVRLKLLEAQRRLPTDHPSHPNNLSLESAGSGTSVDVMVSPGVTAEKLMYDRALEMSRAAAINELTSEDLPGCEIAYVTAIRMLEAVLETDEVQPSGKGTDKVTLDGVQGEEREVLLKLVSKIRMRLATLRQKLAVLAKRQTPPSSGKMIPSNLAHATPATPATGMATPR		binding [5]: binds
kinase subunit PkaR (protein, UniProt O59922 1-412) MSNYSHSSNNPFLKVSTKEDKPSSFHKIAEDEEYEVTSPTDATFRASKNADNSAGGNNPLESGRAGESGDGIRFGRDPFGNFQGGAEGQDESSIDPNGFRPTGGPDHGFPNNYALGRRTSVSAESLNPTSAGSDSWTPPSHPKSEEQLARLKTAVSNNFLFSHLDDEQSRTVLDALVEKPIPAKDIKVISQGDAGDYFYIVEEGHFDVYINPSGSVQPGPDGAGTKISTIGPGGSFGELALMYNAPRAATIVSTEPKSTLWALDRITFRRILMDSAFQRRRMYEAFLEEVPLLSSLKPYERAKIADALDTIKFPAGEYIIKEGDPGDAFYLLESGEAEAFMEGVEEPVKSYKRGDYFGELALLDDKPRAASVRAKTEVKVAKLGRDGFKRLLGPVENIMRRTEYSSRPSTAT		binding [5]: binds
